# Experimental data taken from the supplement of paper PMC8728848.
# The list shows a part of the results.
# Tests used:
# Test in all cases: glycan array binding signal (z-score within array); higher = stronger binding
# Settings in all cases: glycan notation: IUPAC condensed, linker removed
# [1] = molecular target: Fuc(a1-2)Gal(b1-4)GlcNAc(b1-3)Gal(b1-4)GlcNAc(b1-2)Man(a1-3)[Fuc(a1-2)Gal(b1-4)GlcNAc(b1-3)Gal(b1-4)GlcNAc(b1-2)Man(a1-6)]Man(b1-4)GlcNAc(b1-4)GlcNAc
# Method in brief: (§1)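 The Consortium for Functional Glycomics database supplied 3228 glycan arrays, of which those lacking an available protein sequence were dropped. The binding signal, a within-array Z-score, was averaged across arrays of the same protein sequence and across linkers. Negative scores can be read as non-binding.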
# [2] = molecular target: Fuc(a1-2)Gal(b1-4)GlcNAc(b1-3)Gal(b1-4)GlcNAc(b1-3)Gal(b1-4)GlcNAc
# Method in brief: as §1
# [3] = molecular target: Fuc(a1-2)Gal(b1-4)GlcNAc(b1-3)GalNAc
# Method in brief: as §1
# [4] = molecular target: Fuc(a1-2)Gal(b1-4)GlcNAc(b1-3)[Fuc(a1-2)Gal(b1-4)GlcNAc(b1-6)]GalNAc
# Method in brief: as §1
# [5] = molecular target: Fuc(a1-2)Gal(b1-4)GlcNAc(b1-3)[Fuc(a1-3)[Gal(b1-4)]GlcNAc(b1-6)]Gal(b1-4)Glc
# Method in brief: as §1
# [6] = molecular target: Fuc(a1-2)Gal(b1-4)GlcNAc(b1-6)GalNAc
# Method in brief: as §1
# [7] = molecular target: Fuc(a1-2)Gal(b1-4)GlcNAc6S
# Method in brief: as §1
# [8] = molecular target: Fuc(a1-2)Gal(b1-4)[Fuc(a1-3)]GlcNAc
# Method in brief: as §1
# [9] = molecular target: Fuc(a1-2)Gal(b1-4)[Fuc(a1-3)]GlcNAc(b1-2)Man(a1-3)[Fuc(a1-2)Gal(b1-4)[Fuc(a1-3)]GlcNAc(b1-2)Man(a1-6)]Man(b1-4)GlcNAc(b1-4)[Fuc(a1-6)]GlcNAc
# Method in brief: as §1
# [10] = molecular target: Fuc(a1-2)Gal(b1-4)[Fuc(a1-3)]GlcNAc(b1-2)[Fuc(a1-2)Gal(b1-4)[Fuc(a1-3)]GlcNAc(b1-4)]Man(a1-3)[Fuc(a1-2)Gal(b1-4)[Fuc(a1-3)]GlcNAc(b1-2)Man(a1-6)]Man(b1-4)GlcNAc(b1-4)GlcNAc
# Method in brief: as §1
# [11] = molecular target: Fuc(a1-2)Gal(b1-4)[Fuc(a1-3)]GlcNAc(b1-3)Gal(b1-4)[Fuc(a1-3)]GlcNAc
# Method in brief: as §1
# [12] = molecular target: Fuc(a1-2)Gal(b1-4)[Fuc(a1-3)]GlcNAc(b1-3)Gal(b1-4)[Fuc(a1-3)]GlcNAc(b1-3)Gal(b1-4)[Fuc(a1-3)]GlcNAc
# Method in brief: as §1
# [13] = molecular target: Fuc(a1-2)Gal(b1-4)[Fuc(a1-3)]GlcNAc(b1-3)GalNAc
# Method in brief: as §1
# [14] = molecular target: Fuc(a1-2)Gal(b1-4)[Fuc(a1-3)]GlcNAc(b1-3)[Neu5Ac(a2-6)Gal(b1-4)GlcNAc(b1-6)]Gal(b1-4)Glc
# Method in brief: as §1
# [15] = molecular target: Fuc(a1-2)Gal3S(b1-4)GlcNAc
# Method in brief: as §1
# [16] = molecular target: Fuc(a1-2)Gal6S(b1-3)GlcNAc
# Method in brief: as §1
# [17] = molecular target: Fuc(a1-2)Gal6S(b1-3)GlcNAc6S
# Method in brief: as §1
# [18] = molecular target: Fuc(a1-2)Gal6S(b1-4)Glc
# Method in brief: as §1
# [19] = molecular target: Fuc(a1-2)Gal6S(b1-4)Glc6S
# Method in brief: as §1
# [20] = molecular target: Fuc(a1-2)[Gal(a1-3)]Gal
# Method in brief: as §1
# [21] = molecular target: Fuc(a1-2)[Gal(a1-3)]Gal(b1-3)GalNAc
# Method in brief: as §1
# [22] = molecular target: Fuc(a1-2)[Gal(a1-3)]Gal(b1-3)GalNAc(b1-3)Gal(a1-4)Gal(b1-4)Glc
# Method in brief: as §1
# [23] = molecular target: Fuc(a1-2)[Gal(a1-3)]Gal(b1-3)GlcNAc
# Method in brief: as §1
# [24] = molecular target: Fuc(a1-2)[Gal(a1-3)]Gal(b1-3)GlcNAc(b1-2)Man(a1-3)[Fuc(a1-2)[Gal(a1-3)]Gal(b1-3)GlcNAc(b1-2)Man(a1-6)]Man(b1-4)GlcNAc(b1-4)GlcNAc
# Method in brief: as §1
# [25] = molecular target: Fuc(a1-2)[Gal(a1-3)]Gal(b1-3)GlcNAc(b1-2)Man(a1-3)[Fuc(a1-2)[Gal(a1-3)]Gal(b1-3)GlcNAc(b1-2)Man(a1-6)]Man(b1-4)GlcNAc(b1-4)[Fuc(a1-6)]GlcNAc
# Method in brief: as §1
# [26] = molecular target: Fuc(a1-2)[Gal(a1-3)]Gal(b1-3)GlcNAc(b1-3)GalNAc
# Method in brief: as §1
# [27] = molecular target: Fuc(a1-2)[Gal(a1-3)]Gal(b1-3)GlcNAc(b1-6)GalNAc
# Method in brief: as §1
# [28] = molecular target: Fuc(a1-2)[Gal(a1-3)]Gal(b1-4)Glc
# Method in brief: as §1
# [29] = molecular target: Fuc(a1-2)[Gal(a1-3)]Gal(b1-4)GlcNAc
# Method in brief: as §1
# [30] = molecular target: Fuc(a1-2)[Gal(a1-3)]Gal(b1-4)GlcNAc(b1-2)Man
# Method in brief: as §1
binder,measurement,setting,value
LlpA (Arthrobacter sp) (protein) MGSSHHHHHHSSGLVPRGSHMTLHPETALRPGAAATSPNSRYRLLYQTDGNLVLYGPDGPLWDSGTNGHGAGACIMQADGNLVLYGPNDEYVWDTETDNNPGSRLVIQDDGNAVIYRPDGSPLWATETCQPPGSADSHVLQSGSTLTPTHGIRSANGLYGLLYQTDGNLVFYGPDGPLWDSGTNGRGAGACIMQPDGNLVLYGPHDEYVWDTETDNNPGSRLVIQDDGNAVIYRPDGNPTWVTGTH,glycan array binding signal (z-score),[1],1
same,glycan array binding signal (z-score),[2],0.386
same,glycan array binding signal (z-score),[3],0.063
same,glycan array binding signal (z-score),[4],0.363
same,glycan array binding signal (z-score),[5],0.676
same,glycan array binding signal (z-score),[6],1.55
same,glycan array binding signal (z-score),[7],-1.22
same,glycan array binding signal (z-score),[8],-0.304
same,glycan array binding signal (z-score),[9],1.97
same,glycan array binding signal (z-score),[10],1.33
same,glycan array binding signal (z-score),[11],-0.312
same,glycan array binding signal (z-score),[12],-0.294
same,glycan array binding signal (z-score),[13],-1.05
same,glycan array binding signal (z-score),[14],-0.133
same,glycan array binding signal (z-score),[15],-0.507
same,glycan array binding signal (z-score),[16],-1.38
same,glycan array binding signal (z-score),[17],0.436
same,glycan array binding signal (z-score),[18],0.733
same,glycan array binding signal (z-score),[19],0.173
same,glycan array binding signal (z-score),[20],0.136
same,glycan array binding signal (z-score),[21],0.157
same,glycan array binding signal (z-score),[22],-0.344
same,glycan array binding signal (z-score),[23],-0.821
same,glycan array binding signal (z-score),[24],0.506
same,glycan array binding signal (z-score),[25],-0.848
same,glycan array binding signal (z-score),[26],-0.382
same,glycan array binding signal (z-score),[27],-0.929
same,glycan array binding signal (z-score),[28],-0.248
same,glycan array binding signal (z-score),[29],-0.094
same,glycan array binding signal (z-score),[30],-0.686

# Not a retest: entries from further up.
binder,measurement,setting,value
LlpA (Arthrobacter sp) (protein) MGSSHHHHHHSSGLVPRGSHMTLHPETALRPGAAATSPNSRYRLLYQTDGNLVLYGPDGPLWDSGTNGHGAGACIMQADGNLVLYGPNDEYVWDTETDNNPGSRLVIQDDGNAVIYRPDGSPLWATETCQPPGSADSHVLQSGSTLTPTHGIRSANGLYGLLYQTDGNLVFYGPDGPLWDSGTNGRGAGACIMQPDGNLVLYGPHDEYVWDTETDNNPGSRLVIQDDGNAVIYRPDGNPTWVTGTH,glycan array binding signal (z-score),[21],0.157
same,glycan array binding signal (z-score),[22],-0.344
